Consider 1 molecule from patent US20020049300A1.

Protein sequences, listed by entry. Tags and fused reporters are not part of them.
UniProt Q99836: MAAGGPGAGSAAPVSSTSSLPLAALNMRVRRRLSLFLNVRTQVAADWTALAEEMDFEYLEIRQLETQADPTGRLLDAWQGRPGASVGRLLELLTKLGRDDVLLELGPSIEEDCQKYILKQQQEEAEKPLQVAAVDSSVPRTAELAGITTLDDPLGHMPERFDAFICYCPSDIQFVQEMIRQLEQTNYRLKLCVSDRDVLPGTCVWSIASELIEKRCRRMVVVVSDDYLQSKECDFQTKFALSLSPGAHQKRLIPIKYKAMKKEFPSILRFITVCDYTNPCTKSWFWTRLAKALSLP

Results are given in words; binding and its absence hold for the method and conditions named. Some binding calls cover weakened binding; strength is not graded here.

This experiment has as its target MyD88 (UniProt Q99836). The experiment in a line: coexpression and in vitro binding assays (no details given).

B1: human IRAK3 polypeptide (enzyme)
chain: MAGNCGARGALSAHTLLFDLPPALLGELCAVLDSCDGALGWRGLAERLSSSWLDVRHIEKYVDQGKSGTRELLWSWAQKNKTIGDLLQVLQEMGHRRAIHLITNYGAVLSPSEKSYQEGGFPNILFKETANVTVDNVLIPEHNEKGVLLKSSISFQNIIEGTRNFHKDFLIGEGEIFEVYRVEIQNLTYAVKLFKQEKKMQCKKHWKRFLSELEVLLLFHHPNILELAAYFTETEKFCLIYPYMRNGTLFDRLQCVGDTAPLPWHIRIGILIGISKAIHYLHNVQPCSVICGSISSANILLDDQFQPKLTDFAMAHFRSHLEHQSCTINMTSSSSKHLWYMPEEYIRQGKLSIKTDVYSFGIVIMEVLTGCRVVLDDPKHIQLRDLLRELMEKRGLDSCLSFLDKKVPPCPRNFSAKLFCLAGRCAATRAKLRPSMDEVLNTLESTQASLYFAEDPPTSLKSFRCPSPLFLENVPSIPVEDDESQNNNLLPSDEGLRIDRMTQKTPFECSQSEVMFLSLDKKPESKRNEEACNMPSSSCEESWFPKYIVPSQDLRPYKVNIDPSSEAPGHSCRSRPVESSCSSKFSWDEYEQYKKE
In the case of B1, the binding entry was “binds”.
